PubChem BioAssay AID1259405 – NCATS | 2018

Test: 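Knock-downs that lift recombinant protein yield in hamster ovary cells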 (primary screen)
System: Chinese hamster CHO-K1 ovary cells with stable secreted eGFP expression
Reagents: single siRNA against mouse genes, 0.8 pmol siRNA per well (2 µl of 400 nM stock)
Time to read-out: 3 days
Measurement: 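Percent of the per-plate non-targeting control median for intracellular GFP per well by laser scanning cytometry and for cell viability by ATP luminescence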
Direction: GFP, % of control: higher = more GFP per well, higher productivity; viability (ATP), % of control: higher = more viable cells (more ATP)
Rule for the call: 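a knock-down is called active if GFP reaches 120% or more of non-targeting control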
Here is a random part of about 50,000 reagents. Over the whole deposit, about 4,000 (8%) got an active call. 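Mouse siRNA library applied to hamster cells; one well for each siRNA.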 Reagents against one gene are numbered here.

The opening 11 entries, to show the layout:
| target | reagent | GFP, % of control | viability (ATP), % of control | activity call |
| --- | --- | --- | --- | --- |
| Cxcl1 (C-X-C motif chemokine ligand 1) | 1 | 72.1 | 73.1 | inactive |
| Cxcl1 (C-X-C motif chemokine ligand 1) | 2 | 84.7 | 75.2 | inactive |
| Cxcl1 (C-X-C motif chemokine ligand 1) | 3 | 90.7 | 46.6 | inactive |
| Drp2 (dystrophin related protein 2) | 1 | 71.4 | 106 | inactive |
| Drp2 (dystrophin related protein 2) | 2 | 68.3 | 64.9 | inactive |
| Cd4 (CD4 antigen) | 1 | 55.5 | 66.8 | inactive |
| Cd4 (CD4 antigen) | 2 | 81.4 | 67.1 | inactive |
| Cd4 (CD4 antigen) | 3 | 97.1 | 75.6 | inactive |
| Bst1 (bone marrow stromal cell antigen 1) | 1 | 102 | 69.6 | inactive |
| Bst1 (bone marrow stromal cell antigen 1) | 2 | 59.6 | 27.4 | inactive |
| Bst1 (bone marrow stromal cell antigen 1) | 3 | 75.7 | 55.2 | inactive |

The list itself, from the start:
| target | reagent | GFP, % of control | viability (ATP), % of control | activity call |
| --- | --- | --- | --- | --- |
| Cxcl1 (C-X-C motif chemokine ligand 1) | 1 | 72.1 | 73.1 | inactive |
| Cxcl1 (C-X-C motif chemokine ligand 1) | 2 | 84.7 | 75.2 | inactive |
| Cxcl1 (C-X-C motif chemokine ligand 1) | 3 | 90.7 | 46.6 | inactive |
| Drp2 (dystrophin related protein 2) | 1 | 71.4 | 106 | inactive |
| Drp2 (dystrophin related protein 2) | 2 | 68.3 | 64.9 | inactive |
| Cd4 (CD4 antigen) | 1 | 55.5 | 66.8 | inactive |
| Cd4 (CD4 antigen) | 2 | 81.4 | 67.1 | inactive |
| Cd4 (CD4 antigen) | 3 | 97.1 | 75.6 | inactive |
| Bst1 (bone marrow stromal cell antigen 1) | 1 | 102 | 69.6 | inactive |
| Bst1 (bone marrow stromal cell antigen 1) | 2 | 59.6 | 27.4 | inactive |
| Bst1 (bone marrow stromal cell antigen 1) | 3 | 75.7 | 55.2 | inactive |
| Phactr4 (phosphatase and actin regulator 4) | 1 | 143 | 89.5 | active |
| Phactr4 (phosphatase and actin regulator 4) | 2 | 120 | 68.1 | active |
| Phactr4 (phosphatase and actin regulator 4) | 3 | 92.7 | 64.4 | inactive |
| Cyp2d9 (cytochrome P450, family 2, subfamily d, polypeptide 9) | 1 | 84.9 | 57.3 | inactive |
| Cyp2d9 (cytochrome P450, family 2, subfamily d, polypeptide 9) | 2 | 89.9 | 73.1 | inactive |
| Cyp2d9 (cytochrome P450, family 2, subfamily d, polypeptide 9) | 3 | 53 | 56.2 | inactive |
| Or1e29 (olfactory receptor family 1 subfamily E member 29) | 1 | 40.8 | 49.9 | inactive |
| Or1e29 (olfactory receptor family 1 subfamily E member 29) | 2 | 101 | 94.4 | inactive |
| Or1e29 (olfactory receptor family 1 subfamily E member 29) | 3 | 77.8 | 87.5 | inactive |
| Foxl2 (forkhead box L2) | 1 | 73.7 | 124 | inactive |
| Foxl2 (forkhead box L2) | 2 | 68.2 | 76.3 | inactive |
| Ceacam11 (CEA cell adhesion molecule 11) | 1 | 127 | 111 | active |
| Ceacam11 (CEA cell adhesion molecule 11) | 2 | 61.8 | 72.1 | inactive |
| Ceacam11 (CEA cell adhesion molecule 11) | 3 | 72.7 | 89.8 | inactive |
| Bmp8b (bone morphogenetic protein 8b) | 1 | 48.5 | 52.1 | inactive |
| Bmp8b (bone morphogenetic protein 8b) | 2 | 37.9 | 42.5 | inactive |
| Bmp8b (bone morphogenetic protein 8b) | 3 | 60.2 | 64 | inactive |
| Fgf15 (fibroblast growth factor 15) | 1 | 65.1 | 82.8 | inactive |
| Fgf15 (fibroblast growth factor 15) | 2 | 33.8 | 39.3 | inactive |
| Fgf15 (fibroblast growth factor 15) | 3 | 89.4 | 69.1 | inactive |
| Gm5800 (predicted gene 5800) | 1 | 38.4 | 42.3 | inactive |
| Gm5800 (predicted gene 5800) | 2 | 102 | 43.6 | inactive |
| Gm5800 (predicted gene 5800) | 3 | 103 | 45.1 | inactive |
| Cdc25c (cell division cycle 25C) | 1 | 114 | 84.9 | inactive |
| Cdc25c (cell division cycle 25C) | 2 | 94.4 | 87.2 | inactive |
| Cdc25c (cell division cycle 25C) | 3 | 84.3 | 71.9 | inactive |
| D5Ertd579e (DNA segment, Chr 5, ERATO Doi 579, expressed) | 1 | 91.3 | 92.7 | inactive |
| D5Ertd579e (DNA segment, Chr 5, ERATO Doi 579, expressed) | 2 | 82.5 | 98.2 | inactive |
| D5Ertd579e (DNA segment, Chr 5, ERATO Doi 579, expressed) | 3 | 101 | 101 | inactive |
| Vmn1r93 (vomeronasal 1 receptor 93) | 1 | 60.8 | 38.5 | inactive |
| Vmn1r93 (vomeronasal 1 receptor 93) | 2 | 70.6 | 75.6 | inactive |
| Vmn1r93 (vomeronasal 1 receptor 93) | 3 | 50.5 | 52.3 | inactive |
| Wwox (WW domain-containing oxidoreductase) | 1 | 58.2 | 70.9 | inactive |
| Wwox (WW domain-containing oxidoreductase) | 2 | 65.7 | 70.2 | inactive |
| Wwox (WW domain-containing oxidoreductase) | 3 | 71.8 | 66.7 | inactive |
| Ccl3 (C-C motif chemokine ligand 3) | 1 | 124 | 145 | active |
| Ccl3 (C-C motif chemokine ligand 3) | 2 | 53 | 52.9 | inactive |
| Ipp (IAP promoted placental gene) | 1 | 97.8 | 78.9 | inactive |
| Ipp (IAP promoted placental gene) | 2 | 62.5 | 101 | inactive |
| Ier3ip1 (immediate early response 3 interacting protein 1) | 1 | 55.6 | 63.7 | inactive |
| Ier3ip1 (immediate early response 3 interacting protein 1) | 2 | 96.5 | 74.3 | inactive |
| Ier3ip1 (immediate early response 3 interacting protein 1) | 3 | 71.2 | 59.9 | inactive |
| Prrt1 (proline-rich transmembrane protein 1) | 1 | 77.3 | 76.8 | inactive |
| Prrt1 (proline-rich transmembrane protein 1) | 2 | 93.3 | 81.5 | inactive |
| Prrt1 (proline-rich transmembrane protein 1) | 3 | 83 | 80.3 | inactive |
| Scpep1 (serine carboxypeptidase 1) | 1 | 94.9 | 86.4 | inactive |
| Scpep1 (serine carboxypeptidase 1) | 2 | 60.6 | 106 | inactive |
| Scpep1 (serine carboxypeptidase 1) | 3 | 146 | 162 | active |
| Tfb2m (transcription factor B2, mitochondrial) | 1 | 138 | 89.8 | active |
| Tfb2m (transcription factor B2, mitochondrial) | 2 | 64 | 77.3 | inactive |
| Uap1 (UDP-N-acetylglucosamine pyrophosphorylase 1) | 1 | 85.8 | 108 | inactive |
| Uap1 (UDP-N-acetylglucosamine pyrophosphorylase 1) | 2 | 70.5 | 122 | inactive |
| Uap1 (UDP-N-acetylglucosamine pyrophosphorylase 1) | 3 | 81.5 | 102 | inactive |
| Hnrnpa3 (heterogeneous nuclear ribonucleoprotein A3) | 1 | 53.8 | 34.9 | inactive |
| Hnrnpa3 (heterogeneous nuclear ribonucleoprotein A3) | 2 | 49.5 | 59.4 | inactive |
| Hnrnpa3 (heterogeneous nuclear ribonucleoprotein A3) | 3 | 70.5 | 70.5 | inactive |
| Arrdc4 (arrestin domain containing 4) | 1 | 66 | 66.3 | inactive |
| Arrdc4 (arrestin domain containing 4) | 2 | 72.4 | 92 | inactive |
| Arrdc4 (arrestin domain containing 4) | 3 | 65 | 66.7 | inactive |
| Gak (cyclin G associated kinase) | 1 | 82.4 | 30.7 | inactive |
| Gak (cyclin G associated kinase) | 2 | 102 | 93.3 | inactive |
| Gak (cyclin G associated kinase) | 3 | 87.1 | 114 | inactive |
| Nsl1 (NSL1, MIS12 kinetochore complex component) | 1 | 51.7 | 70.4 | inactive |
| Nsl1 (NSL1, MIS12 kinetochore complex component) | 2 | 44.7 | 47.3 | inactive |
| Nsl1 (NSL1, MIS12 kinetochore complex component) | 3 | 72.8 | 55.2 | inactive |
| Nt5c1b (5'-nucleotidase, cytosolic IB) | 1 | 78.2 | 71.5 | inactive |
| Nt5c1b (5'-nucleotidase, cytosolic IB) | 2 | 73 | 60.9 | inactive |
| Nt5c1b (5'-nucleotidase, cytosolic IB) | 3 | 57.4 | 53.5 | inactive |
| Zfp623 (zinc finger protein 623) | 1 | 81.6 | 66.9 | inactive |
| Zfp623 (zinc finger protein 623) | 2 | 53.2 | 53.4 | inactive |
| Zfp623 (zinc finger protein 623) | 3 | 68.4 | 72.1 | inactive |
| Mapk13 (mitogen-activated protein kinase 13) | 1 | 53.5 | 64.3 | inactive |
| Creld2 (cysteine-rich with EGF-like domains 2) | 1 | 77 | 88.9 | inactive |
| Creld2 (cysteine-rich with EGF-like domains 2) | 2 | 98.3 | 74.8 | inactive |
| Creld2 (cysteine-rich with EGF-like domains 2) | 3 | 104 | 126 | inactive |
| Grid2ip | 1 | 55.1 | 70.7 | inactive |
| Grid2ip | 2 | 135 | 103 | active |
| Commd2 (COMM domain containing 2) | 1 | 82.8 | 105 | inactive |
| Commd2 (COMM domain containing 2) | 2 | 59.8 | 76.4 | inactive |
| Commd2 (COMM domain containing 2) | 3 | 73.8 | 112 | inactive |
| Poc5 (POC5 centriolar protein) | 1 | 77.9 | 91.1 | inactive |
| Poc5 (POC5 centriolar protein) | 2 | 66.7 | 79.5 | inactive |
| Poc5 (POC5 centriolar protein) | 3 | 33.9 | 15.9 | inactive |
| Oxgr1 (oxoglutarate (alpha-ketoglutarate) receptor 1) | 1 | 98.8 | 70.2 | inactive |
| Oxgr1 (oxoglutarate (alpha-ketoglutarate) receptor 1) | 2 | 81.5 | 52.9 | inactive |
| Oxgr1 (oxoglutarate (alpha-ketoglutarate) receptor 1) | 3 | 77.2 | 77.8 | inactive |
| Topbp1 (topoisomerase (DNA) II binding protein 1) | 1 | 195 | 135 | active |
| Topbp1 (topoisomerase (DNA) II binding protein 1) | 2 | 62.6 | 78.2 | inactive |
| Topbp1 (topoisomerase (DNA) II binding protein 1) | 3 | 69.5 | 113 | inactive |
| Topbp1 (topoisomerase (DNA) II binding protein 1) | 4 | 83.1 | 94.9 | inactive |
| Topbp1 (topoisomerase (DNA) II binding protein 1) | 5 | 90.2 | 66 | inactive |
| Bex3 (brain expressed X-linked 3) | 1 | 63.3 | 43.8 | inactive |
| Bex3 (brain expressed X-linked 3) | 2 | 83.9 | 99.9 | inactive |
| Bex3 (brain expressed X-linked 3) | 3 | 106 | 58.2 | inactive |
| Lynx1 (Ly6/neurotoxin 1) | 1 | 92.8 | 82.2 | inactive |
| Lynx1 (Ly6/neurotoxin 1) | 2 | 125 | 86.7 | active |
| Lynx1 (Ly6/neurotoxin 1) | 3 | 84.7 | 101 | inactive |
